The list shows a part of the results.

Sequences of proteins named here, by UniProt entry; tags and fusion partners are left off.
UniProt Q0JBA9, entry or part of it: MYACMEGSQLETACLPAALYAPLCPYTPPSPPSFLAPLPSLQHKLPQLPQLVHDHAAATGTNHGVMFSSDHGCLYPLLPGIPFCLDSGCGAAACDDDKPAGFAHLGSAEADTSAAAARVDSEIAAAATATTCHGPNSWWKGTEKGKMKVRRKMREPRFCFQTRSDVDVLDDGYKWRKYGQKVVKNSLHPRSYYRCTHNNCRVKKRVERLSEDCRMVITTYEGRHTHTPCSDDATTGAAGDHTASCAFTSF

Among the data in PMC7819943, “Rice protein-binding microarrays: a tool to detect cis-acting elements near promoter regions in rice” are binding signal values, retold here.

This experiment has as its target OsWRKY34 (Oryza sativa, UniProt Q0JBA9 1-250). The experiment can be described thus: protein-binding microarray (RPBM); PBS, 2% BSA, 51.3 ng/ul salmon testes DNA, 50 uM zinc acetate, 200 nM TF, 25 C, 1 h; high values mean tight binding. Particulars: protein: recombinant; tags: N-terminal polyhistidine and DsRed monomer fusion (pET32a); label: CyDye5-dUTP incorporated in the synthesized complementary strand; 3' TTTTT single-stranded linker to array surface; dsDNA, one strand shown. A digest of the protocol: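 Polyhistidine-tagged DsRed fusions of transcription factors, joined at the N-terminus, were expressed in E. coli BL21-CodonPlus and isolated on Ni–NTA. They were incubated at 200 nM for 1 h at 25 °C on a custom Agilent array, double-stranded and BSA-blocked, in PBS with 2% BSA, salmon testes DNA and 50 µM zinc acetate. The binding signal is per-feature fluorescence intensity (arbitrary units) read on an Axon 4000B scanner after washing.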
In the case of “TCAATGTGTGCGTGTGTGGCCTATCTTTTCTTACTCTCTTCGGAGTCACCTAGTGCAG”, the binding signal was 9410 fluorescence intensity (a.u.).

As to “ACGCCGCCTTTTCGTCCCGGTGGATTTCTGCCTCCCTTTTCGGAGTCACCTAGTGCAG”, the binding signal is 8380 fluorescence intensity (a.u.).

In the case of “TGTCGGCGCCATCCACCTCCGCCTCGTCCTCCTGTGCTTGCGGAGTCACCTAGTGCAG”, the binding signal was 9380 fluorescence intensity (a.u.).

For “ACTACTTCTGATCCCTCCAGTGTACGGGTTCCTCCAGCAGCGGAGTCACCTAGTGCAG”, the binding signal is 9590 fluorescence intensity (a.u.).

On to “TATTTTGTATACCTATTTTCTTGGGCCATGCCTTATACGACGGAGTCACCTAGTGCAG”, for which the binding signal is 8650 fluorescence intensity (a.u.).

For the sequence “TTTTCGGGACTGGTTGCATCGGCTTGTCTTCATTGGATTTCGGAGTCACCTAGTGCAG”, the binding signal was 8680 fluorescence intensity (a.u.).

For the sequence “AATTTCAGTTCAATTTGCAGGTTTAAGCTGGTTATCCTTACGGAGTCACCTAGTGCAG”, the binding signal is 8200 fluorescence intensity (a.u.).

For the sequence “CTCTCTCTCTCTCTCTCTCTCCCACGAACGCGACGACTTCCGGAGTCACCTAGTGCAG”, the binding signal is 10100 fluorescence intensity (a.u.).

Turning to “TCCTAACCCATCCAACTCATCTATATAAGCTCCAACCATTCGGAGTCACCTAGTGCAG”, the binding signal is 9930 fluorescence intensity (a.u.).

Consider “ATCCGTATATTATCAGTTGATTCATGATCTCATATTTAAACGGAGTCACCTAGTGCAG”, for which the binding signal is 8070 fluorescence intensity (a.u.).

As to “TGTCGTCGTGGCATTGGATTGGGAGGGGCCATCGCTGCACCGGAGTCACCTAGTGCAG”, the binding signal was 8360 fluorescence intensity (a.u.).

As to “GCCGCCACCATCCGCCTCTAGGGTTTCGGTTCCATGCGATCGGAGTCACCTAGTGCAG”, the binding signal is 8200 fluorescence intensity (a.u.).

For “AGGCCAACAGGTTATTAAGTTCTCATTGCACCTTGGTTCTCGGAGTCACCTAGTGCAG”, the binding signal is 8320 fluorescence intensity (a.u.).

For the sequence “TGGAATGTGCTAGTTTTGGCGCCCTTCGCTTGCTTCCTTGCGGAGTCACCTAGTGCAG”, the binding signal was 9510 fluorescence intensity (a.u.).

On to “AGATATACTTCTTCTTGTCGCGCTGCTTACCGTTGATGCGCGGAGTCACCTAGTGCAG”, for which the binding signal was 9100 fluorescence intensity (a.u.).

In the case of “ATATTTTCTAATACTTTACATTGTTTATACATTTTCCTTACGGAGTCACCTAGTGCAG”, the binding signal was 10100 fluorescence intensity (a.u.).

For the sequence “CCTACTCCTTTTTCTTTCGACGATTCTGCATTCTACACTTCGGAGTCACCTAGTGCAG”, the binding signal is 10100 fluorescence intensity (a.u.).

For the sequence “GGGCCATCTCCCTGATTCCTGAACAAACTACTCACACTGACGGAGTCACCTAGTGCAG”, the binding signal is 8200 fluorescence intensity (a.u.).

“CCGAACCTATATAAAAATCTCTGTCTCCGTCTCTTTTACCCGGAGTCACCTAGTGCAG”: the binding signal is 8320 fluorescence intensity (a.u.).

Regarding “ACACTCGCGCACTCGGCGGCGCCGCCGTCTTTGCCGTTGCCGGAGTCACCTAGTGCAG”, the binding signal is 11200 fluorescence intensity (a.u.).

In the case of “ATAAGTATATAACCACCAGTACACACTCTTCCAACACACACGGAGTCACCTAGTGCAG”, the binding signal was 8050 fluorescence intensity (a.u.).

With “ATAAGACGAACGGTCAAATATGTGCTAAAAAGTCAACGGTCGGAGTCACCTAGTGCAG”, the binding signal was 16400 fluorescence intensity (a.u.).

On to “AGGGAGCCTATTTTAATGTATGACACCGTTGACTTTTTTGCGGAGTCACCTAGTGCAG”, for which the binding signal is 19200 fluorescence intensity (a.u.).
